# Counter-ions that a name gives are not always drawn. The list shows a part of the results. Hit calls seldom repeat between salt and free forms of one compound.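 In K562 cells expressing nanoluciferase-fused kinases, luminescence was recorded at 4 h intervals between 2 and 18 h, normalized as percent of control with DMSO at 100% and a positive control at 0%. A significant (2 sigma) signal drop marks a time point as decreased. The authors' rule for a hit is not shown and takes in more than the number of time points.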
# Chains of the proteins cited; added tags and fusions are not shown. Lines headed by an entry give the natural chain unless they say otherwise; changes in a name come on top.
# UniProt Q9UQM7, whole entry: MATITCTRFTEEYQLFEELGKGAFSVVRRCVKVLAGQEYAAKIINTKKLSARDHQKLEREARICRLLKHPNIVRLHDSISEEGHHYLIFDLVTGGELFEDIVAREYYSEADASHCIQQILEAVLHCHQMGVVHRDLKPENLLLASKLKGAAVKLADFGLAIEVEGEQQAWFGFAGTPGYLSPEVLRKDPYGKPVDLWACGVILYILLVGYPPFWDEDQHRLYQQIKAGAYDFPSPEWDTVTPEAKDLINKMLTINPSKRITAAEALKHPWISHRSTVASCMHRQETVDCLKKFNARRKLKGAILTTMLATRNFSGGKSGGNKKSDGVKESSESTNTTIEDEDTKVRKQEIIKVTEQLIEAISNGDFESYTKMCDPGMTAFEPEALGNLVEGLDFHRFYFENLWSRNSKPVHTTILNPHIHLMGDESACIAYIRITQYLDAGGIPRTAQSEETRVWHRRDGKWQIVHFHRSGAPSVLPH
# UniProt Q13555: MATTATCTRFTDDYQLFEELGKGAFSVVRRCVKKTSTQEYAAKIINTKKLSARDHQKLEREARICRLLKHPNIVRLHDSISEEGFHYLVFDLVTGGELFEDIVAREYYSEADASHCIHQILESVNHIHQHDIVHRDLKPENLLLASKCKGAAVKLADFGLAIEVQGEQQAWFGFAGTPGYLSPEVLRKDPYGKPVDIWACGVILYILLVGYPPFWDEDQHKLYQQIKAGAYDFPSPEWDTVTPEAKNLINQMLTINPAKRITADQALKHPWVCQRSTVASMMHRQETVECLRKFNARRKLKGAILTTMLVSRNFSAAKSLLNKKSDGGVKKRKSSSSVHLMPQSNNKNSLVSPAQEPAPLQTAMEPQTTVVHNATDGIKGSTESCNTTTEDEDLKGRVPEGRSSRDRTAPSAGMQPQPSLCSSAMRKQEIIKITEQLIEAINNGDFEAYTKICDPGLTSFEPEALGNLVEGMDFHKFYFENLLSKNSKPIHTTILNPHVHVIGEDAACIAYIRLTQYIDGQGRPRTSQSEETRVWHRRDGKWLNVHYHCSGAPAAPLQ
# UniProt Q15131: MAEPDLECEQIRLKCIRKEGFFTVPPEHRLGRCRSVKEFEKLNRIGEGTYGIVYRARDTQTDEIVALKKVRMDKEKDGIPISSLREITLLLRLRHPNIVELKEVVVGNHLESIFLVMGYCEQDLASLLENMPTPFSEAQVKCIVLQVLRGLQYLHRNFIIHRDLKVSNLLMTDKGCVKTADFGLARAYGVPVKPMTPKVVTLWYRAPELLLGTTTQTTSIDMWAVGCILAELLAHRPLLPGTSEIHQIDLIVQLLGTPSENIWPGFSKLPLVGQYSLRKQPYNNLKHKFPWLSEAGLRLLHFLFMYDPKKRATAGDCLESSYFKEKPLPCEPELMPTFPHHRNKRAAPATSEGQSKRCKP
# UniProt Q00526: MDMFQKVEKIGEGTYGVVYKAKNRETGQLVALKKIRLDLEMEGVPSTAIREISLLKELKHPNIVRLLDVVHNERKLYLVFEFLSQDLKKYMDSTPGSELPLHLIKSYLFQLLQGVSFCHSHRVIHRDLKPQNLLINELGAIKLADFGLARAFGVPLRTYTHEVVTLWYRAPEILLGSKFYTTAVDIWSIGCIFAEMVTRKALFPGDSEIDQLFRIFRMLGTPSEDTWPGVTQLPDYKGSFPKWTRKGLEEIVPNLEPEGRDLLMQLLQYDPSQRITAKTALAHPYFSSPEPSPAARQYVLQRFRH
# UniProt Q00535, whole entry, looked up: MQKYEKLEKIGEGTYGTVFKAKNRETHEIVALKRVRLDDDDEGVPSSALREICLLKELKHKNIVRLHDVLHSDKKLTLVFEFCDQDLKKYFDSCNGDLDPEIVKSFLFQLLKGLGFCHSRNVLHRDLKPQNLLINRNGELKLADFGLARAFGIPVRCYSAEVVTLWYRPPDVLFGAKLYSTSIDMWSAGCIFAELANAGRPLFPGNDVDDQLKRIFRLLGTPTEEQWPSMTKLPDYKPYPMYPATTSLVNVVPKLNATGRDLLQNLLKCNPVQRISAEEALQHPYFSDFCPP
# UniProt Q00534, whole entry: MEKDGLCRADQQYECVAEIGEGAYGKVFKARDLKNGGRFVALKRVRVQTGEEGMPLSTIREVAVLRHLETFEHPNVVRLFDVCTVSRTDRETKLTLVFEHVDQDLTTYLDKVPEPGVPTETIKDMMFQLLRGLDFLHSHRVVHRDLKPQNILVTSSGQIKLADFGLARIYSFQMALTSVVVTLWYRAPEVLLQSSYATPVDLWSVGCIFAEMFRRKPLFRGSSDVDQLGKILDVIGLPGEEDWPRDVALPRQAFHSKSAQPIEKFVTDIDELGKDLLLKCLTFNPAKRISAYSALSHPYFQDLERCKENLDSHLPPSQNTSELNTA
# UniProt O96017, whole entry: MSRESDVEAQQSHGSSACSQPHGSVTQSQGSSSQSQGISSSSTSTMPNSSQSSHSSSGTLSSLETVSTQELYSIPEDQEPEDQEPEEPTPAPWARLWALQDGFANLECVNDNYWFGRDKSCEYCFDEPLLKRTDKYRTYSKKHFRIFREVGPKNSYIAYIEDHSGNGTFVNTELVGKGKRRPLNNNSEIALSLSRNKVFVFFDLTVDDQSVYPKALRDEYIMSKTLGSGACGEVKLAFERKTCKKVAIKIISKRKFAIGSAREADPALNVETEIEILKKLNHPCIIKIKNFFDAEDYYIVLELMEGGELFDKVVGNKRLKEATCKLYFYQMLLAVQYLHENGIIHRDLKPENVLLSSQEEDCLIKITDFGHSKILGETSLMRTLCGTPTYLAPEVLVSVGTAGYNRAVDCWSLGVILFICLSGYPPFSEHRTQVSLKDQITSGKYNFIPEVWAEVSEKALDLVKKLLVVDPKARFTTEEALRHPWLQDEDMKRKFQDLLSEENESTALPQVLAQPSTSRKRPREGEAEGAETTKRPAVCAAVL
# UniProt P07333, whole entry: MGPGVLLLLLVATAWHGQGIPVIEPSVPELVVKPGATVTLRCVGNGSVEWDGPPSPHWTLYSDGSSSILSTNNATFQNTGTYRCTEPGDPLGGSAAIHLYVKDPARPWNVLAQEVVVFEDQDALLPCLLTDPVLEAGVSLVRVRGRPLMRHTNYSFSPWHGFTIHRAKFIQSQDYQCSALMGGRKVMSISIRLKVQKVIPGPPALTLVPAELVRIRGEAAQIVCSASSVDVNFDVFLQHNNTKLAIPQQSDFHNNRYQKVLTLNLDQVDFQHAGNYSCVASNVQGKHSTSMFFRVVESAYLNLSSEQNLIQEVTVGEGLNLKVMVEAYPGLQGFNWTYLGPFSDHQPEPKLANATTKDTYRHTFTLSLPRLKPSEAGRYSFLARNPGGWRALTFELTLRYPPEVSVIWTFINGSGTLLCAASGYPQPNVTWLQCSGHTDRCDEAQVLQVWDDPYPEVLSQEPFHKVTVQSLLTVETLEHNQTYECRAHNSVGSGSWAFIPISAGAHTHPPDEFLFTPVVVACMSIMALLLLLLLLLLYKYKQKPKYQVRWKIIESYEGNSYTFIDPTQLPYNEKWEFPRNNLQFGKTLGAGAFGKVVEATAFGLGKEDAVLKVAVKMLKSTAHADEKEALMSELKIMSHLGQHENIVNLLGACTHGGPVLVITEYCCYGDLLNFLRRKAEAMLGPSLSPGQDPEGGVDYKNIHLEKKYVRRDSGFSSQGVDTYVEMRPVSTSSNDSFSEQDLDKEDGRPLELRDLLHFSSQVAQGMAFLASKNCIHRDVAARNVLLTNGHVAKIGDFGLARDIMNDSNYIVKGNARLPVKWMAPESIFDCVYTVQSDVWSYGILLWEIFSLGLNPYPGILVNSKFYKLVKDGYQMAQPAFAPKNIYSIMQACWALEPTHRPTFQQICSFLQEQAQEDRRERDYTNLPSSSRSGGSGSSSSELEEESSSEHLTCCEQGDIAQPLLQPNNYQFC
# UniProt P41240: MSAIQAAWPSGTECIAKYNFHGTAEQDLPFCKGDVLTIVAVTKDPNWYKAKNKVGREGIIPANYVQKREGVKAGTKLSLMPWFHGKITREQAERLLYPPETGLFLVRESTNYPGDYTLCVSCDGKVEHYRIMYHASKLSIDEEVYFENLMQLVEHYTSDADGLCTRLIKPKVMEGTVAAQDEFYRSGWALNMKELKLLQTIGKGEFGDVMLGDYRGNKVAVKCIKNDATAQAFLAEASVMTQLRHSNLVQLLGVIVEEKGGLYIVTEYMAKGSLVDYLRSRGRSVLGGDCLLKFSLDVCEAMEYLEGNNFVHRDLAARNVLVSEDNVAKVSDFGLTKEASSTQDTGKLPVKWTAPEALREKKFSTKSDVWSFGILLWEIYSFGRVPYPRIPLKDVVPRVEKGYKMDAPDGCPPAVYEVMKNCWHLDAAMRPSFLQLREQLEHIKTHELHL
# UniProt P48729: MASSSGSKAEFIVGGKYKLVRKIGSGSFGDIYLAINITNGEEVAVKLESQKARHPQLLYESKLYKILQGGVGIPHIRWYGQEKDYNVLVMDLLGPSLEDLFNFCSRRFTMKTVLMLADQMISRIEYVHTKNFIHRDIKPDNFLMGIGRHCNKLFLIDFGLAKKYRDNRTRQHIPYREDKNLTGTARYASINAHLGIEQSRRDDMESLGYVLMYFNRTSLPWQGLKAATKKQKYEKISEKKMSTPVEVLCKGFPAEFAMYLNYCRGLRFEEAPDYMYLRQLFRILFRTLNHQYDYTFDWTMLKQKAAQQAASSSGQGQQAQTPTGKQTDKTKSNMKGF
# UniProt P48730: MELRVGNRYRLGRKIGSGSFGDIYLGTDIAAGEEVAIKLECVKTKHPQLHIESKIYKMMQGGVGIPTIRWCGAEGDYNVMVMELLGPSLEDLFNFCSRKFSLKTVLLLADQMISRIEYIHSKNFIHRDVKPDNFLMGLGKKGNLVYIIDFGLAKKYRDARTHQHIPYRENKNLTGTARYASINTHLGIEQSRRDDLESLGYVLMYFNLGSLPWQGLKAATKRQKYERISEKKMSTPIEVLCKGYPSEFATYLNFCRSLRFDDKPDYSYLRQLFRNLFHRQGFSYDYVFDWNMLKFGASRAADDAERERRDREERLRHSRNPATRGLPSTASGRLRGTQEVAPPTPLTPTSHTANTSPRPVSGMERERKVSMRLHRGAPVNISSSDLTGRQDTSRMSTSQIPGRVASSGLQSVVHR
# UniProt Q08345: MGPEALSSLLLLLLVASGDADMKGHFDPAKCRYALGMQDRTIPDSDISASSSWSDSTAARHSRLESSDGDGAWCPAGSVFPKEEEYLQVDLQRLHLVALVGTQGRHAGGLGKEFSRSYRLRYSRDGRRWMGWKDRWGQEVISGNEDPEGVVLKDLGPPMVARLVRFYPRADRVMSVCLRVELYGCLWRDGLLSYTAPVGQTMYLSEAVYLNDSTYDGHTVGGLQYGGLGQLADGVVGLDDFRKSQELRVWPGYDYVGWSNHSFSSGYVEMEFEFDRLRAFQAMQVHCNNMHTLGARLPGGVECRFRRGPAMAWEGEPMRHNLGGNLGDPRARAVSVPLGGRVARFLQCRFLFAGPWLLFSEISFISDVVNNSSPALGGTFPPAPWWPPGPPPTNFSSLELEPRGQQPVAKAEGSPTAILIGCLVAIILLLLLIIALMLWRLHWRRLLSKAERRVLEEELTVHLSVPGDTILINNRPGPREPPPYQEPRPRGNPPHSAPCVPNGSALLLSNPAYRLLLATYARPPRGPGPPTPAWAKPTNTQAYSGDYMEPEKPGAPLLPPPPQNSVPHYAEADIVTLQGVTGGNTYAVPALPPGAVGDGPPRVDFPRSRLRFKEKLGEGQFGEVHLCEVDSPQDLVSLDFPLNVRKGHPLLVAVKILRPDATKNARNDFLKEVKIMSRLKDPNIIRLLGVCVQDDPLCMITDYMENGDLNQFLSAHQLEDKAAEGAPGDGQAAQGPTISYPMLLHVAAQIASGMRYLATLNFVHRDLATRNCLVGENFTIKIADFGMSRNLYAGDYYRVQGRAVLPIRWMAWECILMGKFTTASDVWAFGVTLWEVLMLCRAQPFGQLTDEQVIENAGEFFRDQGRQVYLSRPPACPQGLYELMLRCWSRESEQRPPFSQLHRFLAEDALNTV
# UniProt Q92630: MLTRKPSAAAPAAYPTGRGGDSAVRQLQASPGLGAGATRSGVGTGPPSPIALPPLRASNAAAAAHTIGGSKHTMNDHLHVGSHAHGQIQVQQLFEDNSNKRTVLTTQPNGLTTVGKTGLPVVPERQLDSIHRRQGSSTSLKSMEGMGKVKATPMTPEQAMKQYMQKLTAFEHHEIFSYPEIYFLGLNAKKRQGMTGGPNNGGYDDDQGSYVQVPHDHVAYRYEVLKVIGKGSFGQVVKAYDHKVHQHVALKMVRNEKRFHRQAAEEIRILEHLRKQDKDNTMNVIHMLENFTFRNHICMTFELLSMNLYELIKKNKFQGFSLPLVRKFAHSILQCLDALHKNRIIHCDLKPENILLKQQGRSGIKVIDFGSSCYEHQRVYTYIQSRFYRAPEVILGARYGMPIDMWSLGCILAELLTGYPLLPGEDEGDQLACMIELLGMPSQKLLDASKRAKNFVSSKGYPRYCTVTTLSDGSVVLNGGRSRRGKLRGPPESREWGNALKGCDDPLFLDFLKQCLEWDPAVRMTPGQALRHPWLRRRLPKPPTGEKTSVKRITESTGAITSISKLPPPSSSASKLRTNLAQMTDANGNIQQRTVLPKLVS
# How the values were obtained:
# Test in all cases: number of time points (of 5) at which kinase-Nluc abundance scored as decreased, DMSO-normalised (count); higher = more persistent destabilization
# Conditions in all cases: K562; 2-18 h
# [1] = target: CAMK2A (UniProt Q9UQM7)
# [2] = target: CAMK2G (UniProt Q13555)
# [3] = target: CDK10 (UniProt Q15131)
# [4] = target: CDK2 (UniProt P24941)
# [5] = target: CDK3 (UniProt Q00526)
# [6] = target: CDK5 (UniProt Q00535)
# [7] = target: CDK6 (UniProt Q00534)
# [8] = target: CHEK2 (UniProt O96017)
# [9] = target: CSF1R (UniProt P07333)
# [10] = target: CSK (UniProt P41240)
# [11] = target: CSNK1A1 (UniProt P48729)
# [12] = target: CSNK1D (UniProt P48730)
# [13] = target: DDR1 (UniProt Q08345)
# [14] = target: DYRK1B (UniProt Q9Y463)
# [15] = target: DYRK2 (UniProt Q92630)
# [16] = target: EGFR (UniProt P00533)
# [17] = target: EGFR_G719S (UniProt P00533)
# [18] = target: EGFR_G719S_T790M (UniProt P00533)
# [19] = target: EGFR_L718V (UniProt P00533)
# [20] = target: EGFR_L858R (UniProt P00533)
Compound,number of time points [1],number of time points [2],number of time points [3],number of time points [4],number of time points [5],number of time points [6],number of time points [7],number of time points [8],number of time points [9],number of time points [10],number of time points [11],number of time points [12],number of time points [13],number of time points [14],number of time points [15],number of time points [16],number of time points [17],number of time points [18],number of time points [19],number of time points [20]
CN(C)Cc1ccc(-c2cnn3c(-c4cccc(NC(=O)c5cccc(C(F)(F)F)c5)c4)ccnc23)cc1 (2.5 µM),0,0,0,0,0,0,0,0,0,0,0,0,0,0,0,0,0,0,0,0
CC(C)(/C=C(\C#N)C(=O)N1CCC[C@@H](n2nc(-c3ccc(Oc4ccccc4)cc3F)c3c(N)ncnc32)C1)N1CCN(C2COC2)CC1 (2.5 µM),0,0,0,0,0,0,0,0,0,0,0,0,0,0,0,0,0,0,0,0
CCN1CCN(Cc2ccc(C(=O)Nc3ccc(C)c(Oc4ccc5c(c4)CC(=O)N5)c3)cc2C(F)(F)F)CC1 (2.5 µM),0,2,1,0,0,0,0,2,1,0,1,1,,1,3,0,2,2,1,3
CNC(=O)c1cccc(-c2ccc3c(N4CCOC[C@@H]4C)nc(N4CCOC[C@@H]4C)nc3n2)c1 [Vistusertib] (2.5 µM),0,0,0,0,3,0,0,3,4,0,3,4,,0,4,2,3,3,0,2
CCCCC[C@H](O)CC(=O)CCc1ccc(O)c(OC)c1 [[6]-Gingerol] (10 µM),0,0,0,0,0,0,0,0,0,0,0,0,0,0,0,,0,0,0,0
CC(C)(C)c1nc2c3cc[nH]c(=O)c3c3cc(F)ccc3c2[nH]1 [Pyridone 6] (10 µM),0,0,0,0,0,,0,0,0,0,0,0,0,0,0,0,0,0,0,0
CC(C)c1cnn2c(NCc3ccccc3)cc(NC[C@H]3CCNC[C@@H]3O)nc12 [Samuraciclib (hydrochloride)] (10 µM),0,0,0,,0,0,0,0,0,0,0,0,0,0,0,0,0,0,0,0
COc1cc2ncn(-c3cc(OCc4ccccc4C(F)(F)F)c(C(N)=O)s3)c2cc1OC (10 µM),0,0,0,0,0,0,0,0,,0,0,0,0,0,0,0,0,0,0,0
COc1cc2ncnc(Nc3ccc(O)cc3)c2cc1OC (10 µM),0,0,0,,0,0,0,0,0,0,0,0,0,0,0,0,0,0,0,0
COc1cc2c(Nc3ccc(NC(=O)c4ccccc4)cc3)ncnc2cc1OCCCN1CCOCC1 (10 µM),0,1,0,0,0,,0,1,0,0,0,0,0,0,0,0,0,0,0,0
CCCn1cnc2c(NCc3ccccc3)nc(NC(CC)CO)nc21 (stereo unspecified) [Ca2+ channel agonist 1] (2.5 µM),0,0,0,,,,0,0,0,0,0,0,0,0,0,0,0,0,0,0
O=C(Nc1ccc(-c2ccnc(Nc3ccc(N4CCOCC4)cc3)n2)cc1)C1CCCN1 (stereo unspecified) (10 µM),0,0,0,,0,0,0,0,0,0,0,0,0,0,0,0,0,0,0,0
CCCS(=O)(=O)Nc1ccc(F)c(C(=O)c2c[nH]c3ncc(Cl)cc23)c1F (10 µM),0,0,0,0,0,0,0,0,,0,0,0,0,0,,0,0,0,0,0
COc1ccc(COc2ccc(Cc3cnc(N)nc3N)cc2OC)cc1 (10 µM),0,0,0,,0,0,0,0,,0,0,0,0,0,0,0,0,0,0,0
NC(=O)c1ccc2nc(-c3ccc(Oc4ccc(Cl)cc4)cc3)[nH]c2c1 (10 µM),0,0,0,0,0,0,0,,0,0,0,0,0,0,0,0,0,0,0,0
NS(=O)(=O)c1ccc(Nc2nc(OCC3CCCCC3)c3[nH]cnc3n2)cc1 (10 µM),0,0,0,,0,0,0,0,0,0,0,0,0,0,0,0,0,0,0,0
c1cc(OCCN2CCCCC2)cc(-c2n[nH]c3ccc(-c4nnc[nH]4)cc23)c1 [CC-401 (hydrochloride)] (10 µM),0,0,0,,0,0,0,0,0,0,0,0,0,0,0,0,0,0,0,0
COc1cc2ncnc(Nc3cccc(O)c3)c2cc1OC (10 µM),0,2,1,,1,0,0,1,1,0,1,2,2,1,3,2,2,2,1,2
COCCNCCc1cccc(Nc2ncc3c(n2)-c2ccccc2[C@H](c2ccccc2F)C3)c1 [Derazantinib] (2.5 µM),0,0,0,0,0,0,0,0,,0,0,0,0,0,0,1,3,0,0,0
CC(C)(C)c1cc(NC(=O)Nc2ccc(-c3cn4c(n3)sc3cc(OCCN5CCOCC5)ccc34)cc2)no1 [Quizartinib] (10 µM),0,1,0,0,0,0,0,0,,3,0,1,2,0,0,2,0,0,0,0
CC(C)Oc1cc(Nc2nc(N[C@@H](C)c3ccc(F)cn3)ncc2Cl)n[nH]1 (10 µM),0,0,0,0,0,,0,0,0,0,0,0,0,0,0,0,0,0,0,0
Cc1ncc(-c2ccnc(Nc3ccc(S(C)(=O)=O)cc3)n2)n1C(C)C (2.5 µM),0,0,0,,0,0,0,3,0,0,0,0,0,0,2,0,3,0,0,0
O=C1NC(=NCc2cccs2)S/C1=C\c1ccc2ncccc2c1 (10 µM),0,0,0,,0,0,0,0,0,0,0,0,0,0,0,0,0,0,0,0
CC[C@H](CO)Nc1nc(NCc2ccccc2)c2ncn(C(C)C)c2n1 [Seliciclib] (10 µM),0,0,0,,,,0,0,0,0,0,0,0,0,0,0,0,0,0,0
Nc1nc(OCC2CCCCC2)c2[nH]cnc2n1 (10 µM),0,0,0,,0,0,0,0,0,0,0,0,0,0,0,0,0,0,0,0

# Some of these compounds in order of molar mass, descending.
Compound,number of time points [1],number of time points [2],number of time points [3],number of time points [4],number of time points [5],number of time points [6],number of time points [7],number of time points [8],number of time points [9],number of time points [10],number of time points [11],number of time points [12],number of time points [13],number of time points [14],number of time points [15],number of time points [16],number of time points [17],number of time points [18],number of time points [19],number of time points [20]
COc1cc2c(Nc3ccc(NC(=O)c4ccccc4)cc3)ncnc2cc1OCCCN1CCOCC1 (10 µM),0,1,0,0,0,,0,1,0,0,0,0,0,0,0,0,0,0,0,0
c1cc(OCCN2CCCCC2)cc(-c2n[nH]c3ccc(-c4nnc[nH]4)cc23)c1 [CC-401 (hydrochloride)] (10 µM),0,0,0,,0,0,0,0,0,0,0,0,0,0,0,0,0,0,0,0
CC[C@H](CO)Nc1nc(NCc2ccccc2)c2ncn(C(C)C)c2n1 [Seliciclib] (10 µM),0,0,0,,,,0,0,0,0,0,0,0,0,0,0,0,0,0,0
